Data on 42 sequences can be found in publication PMC7819943, “Rice protein-binding microarrays: a tool to detect cis-acting elements near promoter regions in rice”.

Chains of the proteins cited; added tags and fusions are not shown.
UniProt Q0JBA9, entry or part of it: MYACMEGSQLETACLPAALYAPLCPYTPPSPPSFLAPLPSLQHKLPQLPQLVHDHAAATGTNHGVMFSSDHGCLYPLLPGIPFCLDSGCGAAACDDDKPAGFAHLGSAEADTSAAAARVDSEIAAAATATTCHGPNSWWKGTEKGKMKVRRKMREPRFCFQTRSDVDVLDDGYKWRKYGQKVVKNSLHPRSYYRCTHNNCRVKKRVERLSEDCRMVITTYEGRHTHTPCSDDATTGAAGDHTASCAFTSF

The list shows a part of the results.

The test has as its target OsWRKY34 (Oryza sativa, UniProt Q0JBA9 1-250). In words: protein-binding microarray (RPBM); PBS, 2% BSA, 51.3 ng/ul salmon testes DNA, 50 uM zinc acetate, 200 nM TF, 25 C, 1 h; high values mean tight binding. The following applies: protein: recombinant; tags: N-terminal polyhistidine and DsRed monomer fusion (pET32a); label: CyDye5-dUTP incorporated in the synthesized complementary strand; 3' TTTTT single-stranded linker to array surface; dsDNA, one strand shown. The procedure, abridged:
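The binding signal is fluorescence intensity per array feature (arbitrary units). Readings came from an Axon 4000B scanner after a washed, 2% BSA-blocked, double-stranded custom Agilent array had been incubated for 1 h at 25 °C with 200 nM protein and 50 µM zinc acetate. The protein was a Ni–NTA-purified transcription factor fused N-terminally to polyhistidine and DsRed, expressed in E. coli BL21-CodonPlus.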
Take “ATCTGTCATTACACGGTGGATTTTCAAAACCATTTACTTCCGGAGTCACCTAGTGCAG”: the binding signal was 9470 fluorescence intensity (a.u.).
Regarding “TTGCTGATGCTGCCTTGGTGATCTTTTTACTTTGTCCTGTCGGAGTCACCTAGTGCAG”, the binding signal is 9720 fluorescence intensity (a.u.).
“AAGGATTTGGAAGTGCAGGTAATCTATGGGTTTCTGGTTTCGGAGTCACCTAGTGCAG”: the binding signal is 9250 fluorescence intensity (a.u.).
The figure for “TCGTCCTCGAGCCCAATACTATACTACTCCTTTGACTCCTCGGAGTCACCTAGTGCAG” is 9370 fluorescence intensity (a.u.).
The figure for “ATTACATAATTCACGTGTCGAGCAATGCTTATCTTCCATCCGGAGTCACCTAGTGCAG” is 8990 fluorescence intensity (a.u.).
The figure for “TGATGGTTTCATCGTCATCTGGGGTTGGAAATGATGATCACGGAGTCACCTAGTGCAG” is 11400 fluorescence intensity (a.u.).
As to “CTCTTCCATTTCTACCATTTATCTGAAGCACAGTTTTTTTCGGAGTCACCTAGTGCAG”, the binding signal is 10000 fluorescence intensity (a.u.).
The figure for “TGCATCCAACCCCGTTCACTTCGATTCGCTCCACGCGCGCCGGAGTCACCTAGTGCAG” is 11100 fluorescence intensity (a.u.); for “CGTGTTGCTGGCATTTTTTGTCCCTGAGCTTTTAGTTGTACGGAGTCACCTAGTGCAG” it is 8560 fluorescence intensity (a.u.); for “TCTTTTCCCTTATTTTTGCCTTTTATTGGATCGGACATGTCGGAGTCACCTAGTGCAG” it is 8840 fluorescence intensity (a.u.).
The figure for “GTACATCATCTTTTCCACCTTTATTTACTGAGTTCGGTTGCGGAGTCACCTAGTGCAG” is 9280 fluorescence intensity (a.u.); for “TTTCAAAATATTTGACTCCGTTGATTTTTTTAGCACATGTCGGAGTCACCTAGTGCAG” it is 9070 fluorescence intensity (a.u.).
The figure for “GATCAGGAGCAGTCTCGTTGACTTTGCTAAAATTTTATTCCGGAGTCACCTAGTGCAG” is 10100 fluorescence intensity (a.u.).
As to “GACAATTACTTAGTCCTCACCTACCGTCGACCTCACACGTCGGAGTCACCTAGTGCAG”, the binding signal is 10200 fluorescence intensity (a.u.).
“CAAAAGCTTTCCAACTTGCCAGCCATTGCCCTCACCGTCTCGGAGTCACCTAGTGCAG”: the binding signal is 8310 fluorescence intensity (a.u.).
Turning to “TTGTTCATGAGTGTCGTGTTTAAATACTCCCTACGGTCACCGGAGTCACCTAGTGCAG”, the binding signal is 9040 fluorescence intensity (a.u.).
As to “CCAATTCCTGCTAAAATTTTATTACCTTTTTGGACGAAAGCGGAGTCACCTAGTGCAG”, the binding signal is 8070 fluorescence intensity (a.u.).
For “ATTTGTCGGCTTAGCCATCGTTGCATCAAGAACTGGTGATCGGAGTCACCTAGTGCAG”, the binding signal was 8070 fluorescence intensity (a.u.).
On to “GATCTCTCTCTCATCAGGACCCCGGCCTTAAGTTGTTTCTCGGAGTCACCTAGTGCAG”, for which the binding signal is 9120 fluorescence intensity (a.u.).
The figure for “GCCGCATTCACGCTGACCCGACGCACCGCCGCCGCGGCGCCGGAGTCACCTAGTGCAG” is 8060 fluorescence intensity (a.u.); for “AGGTGGGGAGCGGCGGACTCGCGGTTGGGTTTGTGTGGTTCGGAGTCACCTAGTGCAG” it is 14200 fluorescence intensity (a.u.).
With “CACCCGCACCCGCCCGCACGGCCGCGCCCGCGTCACCACCCGGAGTCACCTAGTGCAG”, the binding signal was 8090 fluorescence intensity (a.u.).
The figure for “TAATTGCCTATTGGCTCGTTCTGGTTAAATTCATCGTTTCCGGAGTCACCTAGTGCAG” is 10700 fluorescence intensity (a.u.).
In the case of “AATTATGTATTGGCTAGTCAAGTTAAGCAGGTCTTTTATGCGGAGTCACCTAGTGCAG”, the binding signal is 8220 fluorescence intensity (a.u.).
The figure for “ATTGTGTTATGCCACACTTTCTTAACTTTGGGACCCACATCGGAGTCACCTAGTGCAG” is 8970 fluorescence intensity (a.u.); for “GAACACGATGACATCGGATCGGGTCGGTTTCTCTCTTGCTCGGAGTCACCTAGTGCAG” it is 9010 fluorescence intensity (a.u.).
The figure for “TTTATTCGTTACTCCCTCCGTTTTATAATATAAATGATATCGGAGTCACCTAGTGCAG” is 9940 fluorescence intensity (a.u.); for “GGCCCACTCAACCACGTTTCAGTTACTCCTTAATGACCCACGGAGTCACCTAGTGCAG” it is 9060 fluorescence intensity (a.u.).
Take “TTTACTGAGATCAACAATAACCTATATGTATTCTTTTTAACGGAGTCACCTAGTGCAG”: the binding signal is 8920 fluorescence intensity (a.u.).
Consider “ATCTCTACCAAAGTGTCACATTTGTCTCGTAGGATAACTTCGGAGTCACCTAGTGCAG”, for which the binding signal is 8410 fluorescence intensity (a.u.).
The figure for “TTTTCGTAAAGTTCCGCGCACTAACCCGCGCCCCAACCCTCGGAGTCACCTAGTGCAG” is 8750 fluorescence intensity (a.u.).
On to “TTTTGTCTGCTCTTCAATTGCTTTCATATGTATAAACAAGCGGAGTCACCTAGTGCAG”, for which the binding signal was 8940 fluorescence intensity (a.u.).
The figure for “TGTTTTCTTGTTCATGTCTGAATTCCGATTTTCTCCTCCTCGGAGTCACCTAGTGCAG” is 14200 fluorescence intensity (a.u.); for “TGCTGATGTTTTTTTTTGTTTGACTTGTAACTTGTAAGATCGGAGTCACCTAGTGCAG” it is 9130 fluorescence intensity (a.u.).
The figure for “TATTGGAACTATTACGACCACATGCTCTCTTCCTACTCTCCGGAGTCACCTAGTGCAG” is 9770 fluorescence intensity (a.u.).
Regarding “CCCATGGCACCATCCCTGTTTATGATTTTTTTTAAAAAAACGGAGTCACCTAGTGCAG”, the binding signal is 9730 fluorescence intensity (a.u.).
On to “GCACGCACGCACAAGATACAGTATATCTCACCGTCAGTTACGGAGTCACCTAGTGCAG”, for which the binding signal is 9520 fluorescence intensity (a.u.).
The figure for “TTATCCTTAAACTTAAACTTTGCACATGGCCCCTTAAACTCGGAGTCACCTAGTGCAG” is 8040 fluorescence intensity (a.u.); for “TCACTGAATTATTGTCGTGCATTATTTTATCCACTTCCTACGGAGTCACCTAGTGCAG” it is 9090 fluorescence intensity (a.u.).
The figure for “TCAGGTTGTGATTTTGGTCATGGGCCTTTGCGATTAGCCACGGAGTCACCTAGTGCAG” is 8190 fluorescence intensity (a.u.); for “TGTTGTGGTGATGTCTTGCGTAATTTTTGTAGATCCACATCGGAGTCACCTAGTGCAG” it is 9740 fluorescence intensity (a.u.).
For the sequence “ACGAATAATAGAGACCAGCATTTGTACATTCTATATTATACGGAGTCACCTAGTGCAG”, the binding signal is 8150 fluorescence intensity (a.u.).
